According to patent publication US20180222975A1:

Biological target: African green monkey IL-6 (African green monkey)
Experiment: affinity studies

B1: 018 Fab (Fab, V domains shown)
VH: QVQLVQSGAEVKKPGSSVKVSCKASGYALSNYLIEWVRQAPGQGLEWMGVITPGSGTINYAQKFQGRVTITADESTSTAYMELSSLRSEDTAVYYCARSRWDPLYYYALEYWGQGTTVTVSS
VL: DIVMTQSPDSLAVSLGERATINCRASESVDNYGIPFMNWYQQKPGQPPKLLIYAASNRGSGVPDRFSGSGSGTDFTLTISSLQAEDVAVYYCQQSEEVPLTFGQGTKLEIKR
In the case of B1, the binding is reported as “binds”.

No constants are given. Whether binding was seen depends on the method and setting. Binding calls can cover weak binding; strength is not graded here.
